PubChem BioAssay AID1259308, NCATS | 2017
This is an unselected part of about 59,000 deposited reagents. About 1,510 of all reagents (2.6%) were called active. 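Calls use total luciferase alone and ignore viability, so some active siRNAs may act by altering cell number.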 The numbers tell different reagents against one gene apart. Further read-outs or replicates are left out here. Reagent sequences are not shown.

- Purpose: 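Knock-downs that increase output of a recombinant reporter protein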 (primary screen)
- Cell system: human HEK293 embryonic kidney cells stably expressing firefly luciferase (HEK-CMV-Luc2-Hygro)
- Knock-down reagent: single siRNA against human genes, 0.8 pmol siRNA per well
- Time to read-out: 72 h
- Measurement: 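Reporter luminescence and viable-cell signal on separate replicate plates, given as percent of non-targeting control and median/MAD z-scores, plus per-cell luciferase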
- Direction: total luciferase, z-score: higher = more reporter protein produced
- Rule for the call: 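Active when the median/MAD z-score for overall luciferase is greater than 3; a gene was taken forward for validation with new siRNAs if at least two of its three siRNAs passed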
- Meaning of the calls: active = raised luciferase; inactive = no rise

The first 7 records as a preview:
| target | siRNA no. | total luciferase, z-score | outcome |
| --- | --- | --- | --- |
| NAAA | 1 | -0.136 | inactive |
| NAAA | 2 | 0.339 | inactive |
| NAAA | 3 | -0.0128 | inactive |
| CS | 1 | 0.482 | inactive |
| CS | 2 | -0.618 | inactive |
| CS | 3 | 0.902 | inactive |
| ACAA2 | 1 | -0.931 | inactive |

The listing, repeating the preview:
| target | siRNA no. | total luciferase, z-score | outcome |
| --- | --- | --- | --- |
| NAAA | 1 | -0.136 | inactive |
| NAAA | 2 | 0.339 | inactive |
| NAAA | 3 | -0.0128 | inactive |
| CS | 1 | 0.482 | inactive |
| CS | 2 | -0.618 | inactive |
| CS | 3 | 0.902 | inactive |
| ACAA2 | 1 | -0.931 | inactive |
| ACAA2 | 2 | -0.229 | inactive |
| ACAA2 | 3 | 0.124 | inactive |
| FCSK | 1 | 5.76 | active |
| FCSK | 2 | 0.883 | inactive |
| FCSK | 3 | 1.02 | inactive |
| DNAI3 | 1 | 1.18 | inactive |
| DNAI3 | 2 | 0.825 | inactive |
| DNAI3 | 3 | 0.0503 | inactive |
| NAP1L1 | 1 | 0.744 | inactive |
| NAP1L1 | 2 | -0.738 | inactive |
| NAP1L1 | 3 | -0.535 | inactive |
| RAET1G | 1 | 0.66 | inactive |
| RAET1G | 2 | -0.641 | inactive |
| RAET1G | 3 | 1.21 | inactive |
| DLG4 | 1 | -0.173 | inactive |
| DLG4 | 2 | 0.272 | inactive |
| DLG4 | 3 | -0.688 | inactive |
| RPS28P4 | 1 | -2.05 | inactive |
| RPS28P4 | 2 | -2.05 | inactive |
| RPS28P4 | 3 | -3.07 | inactive |
| LAMB1 | 1 | -1.6 | inactive |
| LAMB1 | 2 | 1.81 | inactive |
| LAMB1 | 3 | 0.29 | inactive |
| MEFV | 1 | -0.915 | inactive |
| MEFV | 2 | -0.355 | inactive |
| MEFV | 3 | 1.84 | inactive |
| ZNF665 | 1 | -0.547 | inactive |
| ZNF665 | 2 | 1.03 | inactive |
| ZNF665 | 3 | 0.511 | inactive |
| HIRA | 1 | -0.227 | inactive |
| HIRA | 2 | 0.945 | inactive |
| HIRA | 3 | -0.725 | inactive |
| CCT6B | 1 | 2.08 | inactive |
| CCT6B | 2 | 0.215 | inactive |
| CCT6B | 3 | 0.0239 | inactive |
| CLDN11 | 1 | 0.104 | inactive |
| CLDN11 | 2 | 0.415 | inactive |
| CLDN11 | 3 | 0.248 | inactive |
| FAM153B | 1 | -0.0476 | inactive |
| FAM153B | 2 | 1.03 | inactive |
| FAM153B | 3 | 0.497 | inactive |
| CERK | 1 | 0.228 | inactive |
| CERK | 2 | -1.52 | inactive |
| CERK | 3 | -0.142 | inactive |
| PSMD12 | 1 | -0.0953 | inactive |
| PSMD12 | 2 | 2.33 | inactive |
| PSMD12 | 3 | 0.237 | inactive |
| CD164L2 | 1 | 0.295 | inactive |
| CD164L2 | 2 | -1.53 | inactive |
| CD164L2 | 3 | 4.11 | active |
| GDI1 | 1 | 1.04 | inactive |
| GDI1 | 2 | 0.423 | inactive |
| GDI1 | 3 | 1.97 | inactive |
| OR2A5 | 1 | -0.253 | inactive |
| OR2A5 | 2 | -0.665 | inactive |
| OR2A5 | 3 | -0.107 | inactive |
| FEM1C | 1 | 0.0517 | inactive |
| FEM1C | 2 | -0.876 | inactive |
| FEM1C | 3 | 0.954 | inactive |
| ATN1 | 1 | 0.904 | inactive |
| ATN1 | 2 | 2.05 | inactive |
| ATN1 | 3 | -0.446 | inactive |
| ERGIC3 | 1 | 2.91 | inactive |
| ERGIC3 | 2 | 0.291 | inactive |
| ERGIC3 | 3 | 1.41 | inactive |
| DSC2 | 1 | -0.211 | inactive |
| DSC2 | 2 | -0.633 | inactive |
| DSC2 | 3 | -1.15 | inactive |
